The nature of the series: Chemiresistor response towards analytes in water, direct current (DC) measurement. Particulars: dc 100 mV.

Regarding `CCCO` [1-propanol], the “chemiresistor response, % change in current” value by setting is: (analyte 2000 ppm in water) 0.49%; (analyte 5000 ppm in water) 1.06%; (analyte 10000 ppm in water) 1.90%; (analyte 20000 ppm in water) 3.83%.
On to `Cc1ccccc1` [toluene], for which the “chemiresistor response, % change in current” value is, setting by setting: (analyte 0.1 ppm in water) 0.14%; (analyte 0.2 ppm in water) 0.22%; (analyte 0.5 ppm in water) 0.29%; (analyte 1 ppm in water) 0.43%; (analyte 2 ppm in water) 0.87%; (analyte 5 ppm in water) 1.88%. For the same molecule, the “chemiresistor response, % change in current” value (analyte 10 ppm in water) is on record as 3.43%.
Consider `Clc1cccc(Cl)c1` [m-dichlorobenzene], for which the “chemiresistor response, % change in current” value worked out at 0.23% (analyte 0.1 ppm in water); 0.37% (analyte 0.2 ppm in water); 0.69% (analyte 0.5 ppm in water); 1.18% (analyte 1 ppm in water); 2.36% (analyte 2 ppm in water); 5.63% (analyte 5 ppm in water). Also, the “chemiresistor response, % change in current” value (analyte 10 ppm in water) was 10.19%.
Turning to `O=[N+]([O-])c1ccccc1` [nitrobenzene], the “chemiresistor response, % change in current” value by setting is: (analyte 2 ppm in water) 0.18%; (analyte 5 ppm in water) 0.30%; (analyte 10 ppm in water) 0.52%; (analyte 20 ppm in water) 0.93%.

The values above are taken from US8497130B2, “Method for determining the partition coefficient of an analyte” (Commonwealth Scientific and Industrial Research Organisation, priority 2007, dated 2013).
